Patent US9365577B2, “Pyrimidinone compounds as human neutrophil elastase inhibitors” (CHIESI FARMACEUTICI S.p.A., priority 2012, dated 2016)
Some results were stated once for a whole list of compounds, not compound by compound.

These compounds were tested against T1, human neutrophil elastase (HNE) (Homo sapiens, UniProt P08246) (assay: HNE enzyme assay). Settings: human leukocyte elastase, substrate MeOSuc-Ala-Ala-Pro-Val-AMC, 25° C. for 30 minutes, fluorescence; at least two separate experiments; read-out: HNE inhibition.
T1 construct: purchased Sigma E8140
T1 sequence (P08246 30-267): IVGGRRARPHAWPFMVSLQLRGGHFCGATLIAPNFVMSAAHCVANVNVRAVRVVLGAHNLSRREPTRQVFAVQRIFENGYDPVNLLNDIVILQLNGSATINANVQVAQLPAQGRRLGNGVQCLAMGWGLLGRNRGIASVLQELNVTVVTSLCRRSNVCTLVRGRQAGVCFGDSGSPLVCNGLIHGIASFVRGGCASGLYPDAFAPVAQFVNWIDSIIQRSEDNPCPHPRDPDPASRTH
Type: biochemical
COC(=O)C1=C(C)N(c2cccc(C(F)(F)F)c2)c2n[nH]c(=O)n2[C@@H]1c1ccc(C#N)cc1C[N+](C)(C)C [Example 126, {5-Cyano-2-[(R)-6-methoxycarbonyl-7-methyl-3-oxo-8-(3-trifluoromethyl-phenyl)-2,3,5,8-tetrahydro-[1,2,4]triazolo[4,3-a]pyrimidin-5-yl]-benzyl}-trimethyl-ammonium benzenesulfonate] showed an IC50 of less than 20 nM.
Work on COC(=O)C1=C(C)N(c2cccc(C(F)(F)F)c2)c2n[nH]c(=O)n2[C@@H]1c1ccc(C#N)cc1CC[n+]1ccccc1 [Example 128, 1-(2-{5-Cyano-2-[(R)-6-methoxycarbonyl-7-methyl-3-oxo-8-(3-trifluoromethyl-phenyl)-2,3,5,8-tetrahydro-[1,2,4]triazolo[4,3-a]pyrimidin-5-yl]-phenyl}-ethyl)-pyridinium-2-hydroxy-ethanesulfonate] yielded an IC50 of less than 20 nM.
In the case of COC(=O)C1=C(C)N(c2cccc(C(F)(F)F)c2)c2n[nH]c(=O)n2[C@@H]1c1ccc(C#N)cc1CC[N+](C)(C)C [Example 131, (2-{5-Cyano-2-[(R)-6-methoxycarbonyl-7-methyl-3-oxo-8-(3-trifluoromethyl-phenyl)-2,3,5,8-tetrahydro-[1,2,4]triazolo[4,3-a]pyrimidin-5-yl]-phenyl}-ethyl)-trimethyl-ammonium 2-hydroxy-ethanesulfonate], the IC50 is reported as less than 20 nM.
